Data source: PubChem BioAssay AID504793 (Drosophila RNAi Screening Center, 2011)

Aim: 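Whole-genome screen for parts of the DNA damage checkpoint at G2/M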 (primary screen)
Cell system: Drosophila S2R+ cells
Reagent: long dsRNA against Drosophila genes, about 0.25 µg dsRNA per well
Time to read-out: 4 days of dsRNA, then 4 hours of drug before read-out
Conditions: doxorubicin 0.5 µM for 4 hours to cause double-strand breaks, in cells also given a low, harmless dose of dsRNA against nbs to sensitise the assay
Read-out: 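Per-well count of mitotic cells stained for phospho-histone H3 after doxorubicin exposure, used as mitotic index; counts are raw and not normalised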
Scale: mitotic cells: higher = more cells in mitosis, weaker G2 arrest
Call rule: 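Genes are called active only when high mitotic counts were reproduced with independent dsRNAs and mitosis was checked for delay without damage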
Meaning of the calls: active = confirmed in follow-up tests; inactive = not confirmed
The deposit covers about 23,000 reagents; shown is an unselected part of those with a known target gene and a result. In the full data, 62 (0.27%) are marked active. 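Calls come from follow-up tests whose scores are not deposited, so confirmed genes may have low counts here; counts are not normalised per plate.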 Raw values vary from plate to plate and are shown uncorrected. Names joined by + are all predicted targets of the reagent. Reagent sequences are not shown.

target	dsRNA	mitotic cells, replicate 1	Outcome
CG32445	DRSC11678	15	inactive
CG4995	DRSC02801	8	inactive
nvd	DRSC22139	5	inactive
nvd	DRSC26328	5	inactive
Ptth	DRSC00356	1	inactive
CG42809 + CG42810	DRSC02532	8	inactive
CG42809 + CG42810	DRSC02533	6	inactive
Lsd-2	DRSC20143	12	inactive
Lsd-2	DRSC28901	5	inactive
CaBP1	DRSC01984	6	inactive
ENGase	DRSC19952	16	inactive
ENGase	DRSC19953	7	inactive
AttB	DRSC06734	5	inactive
AttB	DRSC28997	6	inactive
Wnt2	DRSC05160	9	inactive
Wnt2	DRSC07574	3	inactive
Osi6	DRSC12128	12	inactive
Osi6	DRSC25935	4	inactive
p38c	DRSC22939	4	inactive
Ugt301D1	DRSC02021	3	inactive
CG1827	DRSC06719	2	inactive
Obp56f	DRSC22270	8	inactive
CG13894	DRSC23205	14	inactive
CG13894	DRSC29274	3	inactive
Jhe	DRSC07174	9	inactive
Jhe	DRSC29206	2	inactive
CG7945	DRSC10934	8	inactive
drd	DRSC19343	7	inactive
drd	DRSC21466	3	inactive
drd	DRSC26473	5	inactive
Tsp97E	DRSC16019	7	inactive
Tsp97E	DRSC28053	3	inactive
CG15601	DRSC19670	9	inactive
Dhod	DRSC16647	9	inactive
Had2	DRSC05971	6	inactive
Had2	DRSC26955	2	inactive
CG32219	DRSC09641	8	inactive
CG10914	DRSC06010	9	inactive
Pop2	DRSC10537	18	active
Pop2	DRSC27971	8	inactive
jbug	DRSC03952	6	inactive
jbug	DRSC04114	5	inactive
jbug	DRSC04167	10	inactive
jbug	DRSC04388	6	inactive
jbug	DRSC29978	12	inactive
CG11151	DRSC19387	7	inactive
Mal-A6	DRSC07233	5	inactive
Mal-A6	DRSC27167	6	inactive
Acsx1L	DRSC16014	15	inactive
Acsx1L	DRSC25334	9	inactive
CG15602	DRSC19671	5	inactive
CG15602	DRSC30101	7	inactive
MED8	DRSC06426	3	inactive

The list goes on, starting with the last 3 of the part before.
target	dsRNA	mitotic cells, replicate 1	Outcome
CG15602	DRSC19671	5	inactive
CG15602	DRSC30101	7	inactive
MED8	DRSC06426	3	inactive
CG34461	DRSC10767	3	inactive
Eps-15	DRSC04288	8	inactive
dos	DRSC07992	3	inactive
dos	DRSC08713	7	inactive
dos	DRSC23285	15	inactive
intr	DRSC14528	11	inactive
CG10333	DRSC02036	8	inactive
CG10333	DRSC29270	2	inactive
Mcm3	DRSC18679	7	inactive
Mcm3	DRSC25729	10	inactive
CG4743	DRSC15636	9	inactive
CG30472	DRSC22245	11	inactive
CG30472	DRSC26789	4	inactive
CG7882	DRSC04899	3	inactive
CG7102	DRSC02647	6	inactive
CG7102	DRSC03007	7	inactive
gogo	DRSC10070		inactive
gogo	DRSC10071	7	inactive
CG30083	DRSC05572	5	inactive
Nup133	DRSC16150	11	inactive
ItgaPS5	DRSC04501	2	inactive
ItgaPS5	DRSC28842	5	inactive
CG31446	DRSC13111	10	inactive
CG30495	DRSC06703	7	inactive
CG30495	DRSC26893	8	inactive
Jon99Ci	DRSC16860	10	inactive
Jon99Ci	DRSC28041	5	inactive
CG11537	DRSC08200	6	inactive
Smox	DRSC23488	4	inactive
Elp2	DRSC06095	8	inactive
Adh + Adhr	DRSC01862	14	inactive
Adh + Adhr	DRSC01863	14	inactive
ppk28	DRSC19919	7	inactive
Cpr60D	DRSC04492	9	inactive
f-cup	DRSC14139	6	inactive
f-cup	DRSC28933	4	inactive
Cyp4e2	DRSC07371	9	inactive
snRNP-U1-70K	DRSC03612	6	inactive
snRNP-U1-70K	DRSC22071	4	inactive
snRNP-U1-70K	DRSC28803	5	inactive
Lsm12a	DRSC19702	16	inactive
CG30414	DRSC04372	6	inactive
CG30414	DRSC28748	7	inactive
CG13096	DRSC02198	4	inactive
CG13300	DRSC09974	3	inactive
CG13300	DRSC25081	5	inactive
CG31204	DRSC15106	8	inactive
CG31204	DRSC28757	6	inactive
CG13384	DRSC02258	6	inactive
CG33346	DRSC22898	12	inactive
U2af50	DRSC20297	3	inactive
U2af50	DRSC22867	14	inactive
CG32537	DRSC20073	6	inactive
CG32537	DRSC23589	6	inactive
CG18787 + CG18789	DRSC24994	10	inactive
fan	DRSC10930	5	inactive
mRpS30	DRSC20107	8	inactive
